Results deposited as PubChem BioAssay AID720710 (VTT Finland, 2013)
The deposit covers about 1,380 reagents; below is an unselected part. 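One array per condition without replicates; hydroxyurea arrays received 2 mM for 16 h plus 3 h recovery.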 Reagents against one gene are numbered here.

Test: 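siRNAs sensitising CCNE1-overexpressing U-2 OS cells to replication stress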 (primary screen)
Cells: human U-2 OS bone cancer cells, parental and a cyclin E (CCNE1) overexpressing line
Reagents: single siRNA against human genes, 1 µM siRNA in the printed spot mix
Time to read-out: 67 h
Treatment: half the arrays: hydroxyurea 2 mM for 16 h, then 3 h recovery; other arrays untreated
Measured: 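EdU click signal imaged per DAPI-stained nucleus at 67 h; each spot divided by its subgrid median, then z-scored relative to non-targeting control spots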
Direction: EdU z-score, cyclin E line, hydroxyurea and EdU z-score, parental, hydroxyurea and EdU z-score, cyclin E line, untreated and EdU z-score, parental, untreated: higher = more DNA synthesis than non-targeting controls

gene | reagent | EdU z-score, cyclin E line, hydroxyurea | EdU z-score, parental, hydroxyurea | EdU z-score, cyclin E line, untreated | EdU z-score, parental, untreated
H1-3 (H1.3 linker histone, cluster member) | 1 | 0.23 | 1.89 | -2.49 | 0.0431
H1-3 (H1.3 linker histone, cluster member) | 2 | 1.76 | 3.16 | 0.197 | 0.938
MEN1 (menin 1) | 1 | -1.4 | -3.01 | -0.282 | -0.399
MEN1 (menin 1) | 2 | -1.19 | 1.14 | 0.548 | 0.356
ACTL6A (actin like 6A) | 1 | 0.235 | -4.67 | -2.15 | -0.535
ACTL6A (actin like 6A) | 2 | 0.366 | 0.394 | -0.671 | 0.851
LOC648822 | 1 | -1.92 | -2.34 | -3.23 | -1.56
LOC648822 | 2 | 0.961 | 0.186 | -1.83 | -0.547
CHD1 (chromodomain helicase DNA binding protein 1) | 1 | -2.79 | -0.4 | -1.54 | 0.158
CHD1 (chromodomain helicase DNA binding protein 1) | 2 | 0.653 | 0.66 | 0.165 | 0.171
SIRT7 (sirtuin 7) | 1 | -1.89 | 0.215 | -2.17 | -2.07
SIRT7 (sirtuin 7) | 2 | -1.57 | 3.07 | -0.176 | 0.132
RPAIN (RPA interacting protein) | 1 | -0.565 | -1.58 | -2.65 | -1.19
RPAIN (RPA interacting protein) | 2 | -0.294 | 2.29 | -0.547 | 0.806
TRIM2 (tripartite motif containing 2) | 1 | -1.89 | -1.61 | -1.08 | -0.98
TRIM2 (tripartite motif containing 2) | 2 | -0.0442 | -0.771 | 1.14 | 0.101
RIF1 (replication timing regulatory factor 1) | 1 | -0.31 | 0.449 | -0.0725 | -1.28
RIF1 (replication timing regulatory factor 1) | 2 | 0.0724 | 1.91 | 0.0746 | -0.826
NEMF (nuclear export mediator factor) | 1 | -0.996 | 0.303 | -1.24 | -0.888
NEMF (nuclear export mediator factor) | 2 | -0.292 | 4.81 | 1.61 | -0.303
GTF2H5 (general transcription factor IIH subunit 5) | 1 | -0.616 | -4.19 | -2.71 | -1.28
GTF2H5 (general transcription factor IIH subunit 5) | 2 | -0.404 | -0.267 | 0.157 | 0.41
NEIL3 (nei like DNA glycosylase 3) | 1 | -1.47 | -5.43 | -0.944 | 0.334
NEIL3 (nei like DNA glycosylase 3) | 2 | -0.632 | 1.18 | -0.926 | 0.447

Reprinted from above (2 entries):
gene | reagent | EdU z-score, cyclin E line, hydroxyurea | EdU z-score, parental, hydroxyurea | EdU z-score, cyclin E line, untreated | EdU z-score, parental, untreated
GTF2H5 (general transcription factor IIH subunit 5) | 1 | -0.616 | -4.19 | -2.71 | -1.28
GTF2H5 (general transcription factor IIH subunit 5) | 2 | -0.404 | -0.267 | 0.157 | 0.41
